Data published in PubChem BioAssay AID1347075 (National Center for Advancing Translational Sciences (NCATS), 2019).
In all, about 400,000 compounds went through this assay and about 5,500 (1.4%) were called active. Inconclusive results, whose numbers are uncertain, are shown with a selection of clear calls. Calls come from the whole dose curve; as a rule, active = well fitted cell-killing curve with a large enough effect; inconclusive = small, poorly fitted or top-dose-only effect, or effect the other way; inactive = flat fitted curve, though single readings scatter. Potencies beside an inconclusive call are fits to weak or partial responses and may not hold up.

test: qHTS assay for MDR1-selective chemotherapeutics: Primary screen using the parental adenocarcinoma cell KB-3-1; conditions: KB-3-1 viability, CellTiter-Glo ATP luminescence, 72 h; activity change, negative = cytotoxic: at 46.1 µM (top of the series); note: nearly all actives have a fitted effect of over 60% in size
How it was run: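 Luminescent ATP read-out (CellTiter-Glo) measures survival of drug-naive KB-3-1 cells after 72 h compound exposure at 37 °C. Titration series was screened from lowest to highest concentration, with DMSO vehicle plates as background controls.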
% is set by controls: 0 for no effect and ±100 for the full control effect; potency is the fitted concentration of half-maximal effect.

For `CN(C)CCCN(C(=O)c1cc(-c2cccs2)nc2ccccc12)c1nc2c(F)cccc2s1`, which Potency is on record?
Its Potency is inconclusive: 29.1 µM [cytotoxic, single point].

With `O=C(Nc1nc2ccccc2n1CCN1CCOCC1)c1cn(-c2ccccc2)nc1-c1ccccc1` as the compound, how does the Potency read?
Its Potency is inconclusive: 14.6 µM [cytotoxic, partial curve, poor fit].

For `Cc1nc(NCCc2ccccc2)c(C#N)c(C)c1[N+](=O)[O-]`, which Potency is on record?
The Potency was inconclusive: 16.4 µM [cytotoxic, single point].

For `Brc1ccccc1OCCCn1cnc2ccccc21`, which Potency is on record?
Its Potency is inconclusive: 20.6 µM [cytotoxic, single point].

With `CC1CCCN(C(=O)COC(=O)c2cccc(NS(=O)(=O)c3ccccc3)c2)C1` (stereo unspecified) as the compound, how does the “activity change, negative = cytotoxic” value read?
Its value is inactive: 2.99%.

With `Cc1nn2c(-c3ccccc3)nnc2c2ccccc12` as the compound, how does the Potency read?
The Potency was inconclusive: 18.4 µM [cytotoxic, partial curve].

For `O=C(C[C@H]1CC[C@@H](NS(=O)(=O)c2ccccc2)[C@@H](CO)O1)NCc1ccc(Cl)c(Cl)c1`, which “activity change, negative = cytotoxic” value is on record?
Its value is inactive: -24.3%.

For `CCCCN(C)C(=O)C1CCCN(c2ncnc3onc(C)c23)C1` (stereo unspecified), which Potency is on record?
The Potency was inconclusive: 7.31 µM [cytotoxic, partial curve, poor fit].

With `O=C(CN1C(=O)c2ccccc2S1(=O)=O)Nc1ccc([N+](=O)[O-])cc1` as the compound, how does the “activity change, negative = cytotoxic” value read?
The value was inactive: 4.69%.

Which activity change, negative = cytotoxic does the source give for `CCOc1cc(/C=N/NC(=O)CN2CCCCC2)ccc1OCc1cccc(Cl)c1` here?
Its activity change, negative = cytotoxic is inconclusive: 0.765%.

With `O=C(NCCc1ccccc1)c1[nH]c(C(F)(F)F)nc1-c1ccccc1` as the compound, how does the “activity change, negative = cytotoxic” value read?
The value was inactive: -0.0192%.

With `COc1ccc(CNC(=O)Nc2nc(C(N)CCc3ccccc3)cs2)cc1` (stereo unspecified) as the compound, how does the Potency read?
Its Potency is inconclusive: 29.1 µM [cytotoxic, partial curve, poor fit].

With `Clc1ccc2nc(N3CCNCC3)nc(-c3ccccc3)c2c1` as the compound, how does the Potency read?
The Potency was inconclusive: 13 µM [cytotoxic, partial curve].

For `COc1cc(-c2nc3c(c(C)nn3-c3ccccc3)c3cc(OC)c(OC)cc23)ccc1O`, which Potency is on record?
Its Potency is inconclusive: 29.1 µM [cytotoxic, single point].

Which “activity change, negative = cytotoxic” value does the source give for `O=C(CSc1oc(-c2cccs2)nc1S(=O)(=O)c1ccccc1)NC1CCCCC1` here?
The value was inactive: -2.16%.

With `C(=Cc1c[nH]c2ccccc12)c1nccc2ccccc12` as the compound, how does the Potency read?
The Potency was inconclusive: 32.6 µM [cytotoxic, single point].

Which Potency does the source give for `O=Cc1c[nH]c2cccc(OCc3ccccc3)c12` here?
The Potency was inconclusive: 29.1 µM [cytotoxic, single point].

With `COCCCn1c(=O)c2ccccc2n(Cc2ccc(C)cc2)c1=O` as the compound, how does the activity change, negative = cytotoxic read?
The activity change, negative = cytotoxic was inconclusive: -2.43%.

For `Cc1cccc(NC(=O)c2cccc(N3C(=O)C4C5CCC(C5)C4C3=O)c2)c1C` (stereo unspecified), which “activity change, negative = cytotoxic” value is on record?
Its value is inactive: 5.24%.

Which “activity change, negative = cytotoxic” value does the source give for `CCC(SC1=NCCS1)C(=O)Nc1ccc(S(N)(=O)=O)cc1` (stereo unspecified) here?
The value was inactive: 1.51%.

Which Potency does the source give for `CC1CCCC=CC2CC(OC(=O)CN(C)C)CC2C(O)C=CC(=O)O1` (stereo unspecified) here?
The Potency was active: 0.0082 µM.

For `CC(/C=N/NC(=O)c1ccc(Cn2cc([N+](=O)[O-])cn2)o1)=C\c1ccccc1`, which “activity change, negative = cytotoxic” value is on record?
The value was inactive: -1.25%.

Which Potency does the source give for `CC(C)n1cc(CN2CCC(C(=O)Nc3ccc(Oc4ccccc4F)cc3)CC2)cn1` here?
The Potency was inconclusive: 18.4 µM [cytotoxic, single point].

Which Potency does the source give for `CC(C)N(C(=O)CSc1nnc(-c2cc3ccccc3cc2O)n1Cc1ccco1)C(C)C` here?
Its Potency is active: 14.6 µM.

For `COc1ccccc1C(=O)Nc1nnc(-c2ccc(F)cc2)o1`, which Potency is on record?
Its Potency is inconclusive: 2.91 µM [rising, full curve].

With `Cc1ccc(C)c(Cn2c(-c3cccs3)nc3ccccc32)c1` as the compound, how does the “activity change, negative = cytotoxic” value read?
Its value is inactive: -29.6%.

For `N#Cc1c(N2CCOCC2)nsc1-c1ccccc1`, which Potency is on record?
Its Potency is active: 10.3 µM.

With `O=C(NCC1CCCCC1)C1CCCN(C(=O)NC2CCCCC2)C1` (stereo unspecified) as the compound, how does the Potency read?
Its Potency is inconclusive: 25.9 µM [cytotoxic, single point].

For `COc1cccc(C(C(=O)NC2CCCC2)N(C(=O)c2ccco2)c2ccc(NC(C)=O)cc2)c1OC` (stereo unspecified), which “activity change, negative = cytotoxic” value is on record?
The value was inactive: 1.2%.

Which Potency does the source give for `O=C1CSC(=S)N1N=Cc1c(F)cccc1Cl` here?
Its Potency is inconclusive: 13 µM [rising, partial curve, poor fit].

With `CN(C)c1ccc(/C=N/NC(=S)NCc2ccco2)cc1` as the compound, how does the “activity change, negative = cytotoxic” value read?
Its value is inactive: 10.4%.

For `COc1cccc(Nc2sc(C(=O)c3ccc(F)cc3)c(N)c2C(=O)NCc2ccc(Cl)cc2)c1`, which “activity change, negative = cytotoxic” value is on record?
The value was inactive: -0.601%.

With `CC(n1cnnn1)C12CC3CC(CC(C3)C1)C2` (stereo unspecified) as the compound, how does the “activity change, negative = cytotoxic” value read?
Its value is inactive: 1.35%.

For `COC(CNC(=O)c1ccc2c3c(onc13)-c1ccccc1C2=O)OC`, which Potency is on record?
The Potency was inconclusive: 29.1 µM [cytotoxic, single point].

Which Potency does the source give for `COCC(=O)Oc1cc(-c2ccc(C)cc2C)c(OC(=O)COC)c(-c2ccc(C)cc2C)c1` here?
The Potency was inconclusive: 16.4 µM [cytotoxic, single point].

For `Cc1ccc(C(=O)Oc2cccnc2)cc1[N+](=O)[O-]`, which Potency is on record?
The Potency was inconclusive: 29.1 µM [rising, single point].

With `O=C(CSc1ncn[nH]1)N1N=C(c2ccc(Cl)cc2)CC1c1ccco1` (stereo unspecified) as the compound, how does the Potency read?
Its Potency is inconclusive: 16.4 µM [cytotoxic, single point].

Which “activity change, negative = cytotoxic” value does the source give for `NCCCC[C@H]1CNC(=S)N1CCc1cc(C(F)(F)F)cc(C(F)(F)F)c1` here?
The value was inactive: -7.72%.

Which Potency does the source give for `COc1ccc(C(=O)NC(=S)NNC(=O)c2cnccn2)cc1OC` here?
Its Potency is inconclusive: 29.1 µM [cytotoxic, single point].

With `COc1ccc(OC)c(/C=N/NC(=O)c2[nH]nc3c2CCc2ccccc2-3)c1` as the compound, how does the “activity change, negative = cytotoxic” value read?
The value was inactive: -9.81%.

For `O=C(Cc1ccccc1)Nn1c(O)c(/C=C2\C=Nc3ccccc32)sc1=S`, which Potency is on record?
The Potency was inconclusive: 41.1 µM [rising, single point].

With `Cc1ccc(NC(=O)Cn2c(=O)oc3cc(S(=O)(=O)N4CCC(C)CC4)ccc32)cc1C` as the compound, how does the Potency read?
Its Potency is inconclusive: 20.6 µM [cytotoxic, partial curve].

With `NC(=O)SCC(=O)Nc1ccc(Cl)cc1` as the compound, how does the Potency read?
Its Potency is inconclusive: 20.6 µM [cytotoxic, single point].

For `Cn1c(=O)cc(SCC(=O)NCCN2CCN(c3ccccc3F)CC2)c2cc(Cl)ccc21`, which Potency is on record?
Its Potency is inconclusive: 32.6 µM [cytotoxic, single point].

With `CC(C)(C)c1cc(C(=O)NNc2cc(C(F)(F)F)ccc2Cl)n(Cc2ccccc2)n1` as the compound, how does the Potency read?
The Potency was inconclusive: 29.1 µM [cytotoxic, single point].

For `O=C(Nc1ccc2c(c1)OCO2)c1noc2c1CCCC2`, which “activity change, negative = cytotoxic” value is on record?
The value was inactive: -2.6%.
